Drawing on PubChem BioAssay AID2685 (National Center for Advancing Translational Sciences (NCATS), 2010), this text covers cell number change and AC50 for 41 molecules.

Some of the results follow. Shown are side measurements of this screen, not its main read-out; they come without a call. Compounds called inactive in the main read-out are mostly missing here. The note in brackets gives the kind of curve behind each potency; many fits are weak.

The assay in a line: qHTS Assay for Lipid Storage Modulators in Drosophila S3 Cells.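 For cell number change: cells counted by Cell Tracker Red CMTPX staining in the red channel.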 To be noted: BODIPY lipid droplet fluorescence, 18-24 h; for cell number change: measured here: cell count max response, cells fed with added oleic acid. Put shortly: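 Drosophila S3 cells loaded with oleic acid (400 uM, as added) and compounds at several concentrations; lipid droplets imaged by 488-nm laser-scanning cytometry, 500–530 nm intensity and object ratio to cell channel. Percent activity normalized to 20 uM Triacsin C.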
For orientation: qHTS replaces the single test concentration by a dilution series.

The mark [1] stands for this setting: measured here: cell number channel AC50, cells fed with added oleic acid.
The mark [2] stands for this setting: measured here: lipid fluorescence (Fed channel) AC50, cells fed with added oleic acid.

What is called AC50 is the concentration at which the activity in the assay is half-maximal. A higher AC50 goes with activity only at high concentration. Regarding `CC(=O)C1=C(O)C(=O)N(c2ccc(Br)cn2)C1c1ccc(Br)cc1` (centres undefined), the cell number change amounted to 14%. For the same molecule, under setting [1], the concentration at half-maximal activity (AC50) was 4.61 µM [rising, single point].

For `Cn1c(-c2ccc3nc(N)sc3c2)nc2cc(N)ccc21`, the half-maximal activity concentration (AC50) runs as follows: under setting [1], 0.184 µM [rising, partial curve]; under setting [2], 0.184 µM [rising, partial curve].

In the case of `CCN(CC)C(=O)CSc1ncnc2c1nnn2-c1ccc(OC)cc1`, the cell number change is -26.4%. Moreover, the concentration at half-maximal activity (AC50) under setting [1] was 1.03 µM [falling, full curve, poor fit]. Further, under setting [2], the half-maximal activity concentration (AC50) was 1.3 µM [falling, full curve].

`COc1ccc([C@H]2CC(=O)C=C(c3ccc(OC(F)(F)F)cc3)C2)cc1`: the cell number change is -16.7%. Also, the AC50 under setting [2] is 29.1 µM [falling, partial curve, poor fit].

In the case of `Cc1ccc2nc(SCC(=O)NC3CCCc4ccccc43)[nH]c2c1` (centres undefined), the cell number change worked out at 15.5%. In addition, under setting [2], the AC50 is 6.51 µM [rising, single point].

In the case of `O=C(NCc1cccnc1)c1ccc(Br)o1`, the cell number change was 9.76%.

With `COc1cccc(-c2nc(N3CCN(C)CC3)c3ccccc3n2)c1O`, the cell number change was -29%. In addition, the AC50 under setting [2] was 3.66 µM [falling, full curve].

For the molecule `C=CCNC(=S)NNC(=O)c1ccc2c(c1)OCO2`, the cell number change is 13.5%. In addition, the concentration at half-maximal activity (AC50) under setting [1] is 0.517 µM [rising, single point].

With `O=C1CC(c2ccc(F)cc2)Cc2nc(N3CCOCC3)ncc21` (centres undefined), the cell number change was -10.3%.

`O=C(NC1CCCc2ccccc21)c1ccccc1Br` (centres undefined): the cell number change came out at 49.9%. In addition, under setting [2], the AC50 is 29.1 µM [rising, single point].

As for `O=C(O)c1c2c(nc3ccc(S(=O)(=O)N4CCC(C(=O)NCc5ccc(Cl)cc5)CC4)cc13)CCCC2`, the cell number change is 14.6%. Moreover, under setting [2], the concentration at half-maximal activity (AC50) was 0.0058 µM [rising, full curve].

In the case of `CCOC(=O)CN1CC23C=CC(O2)C(C(=O)NC2CCCCC2)C3C1=O` (centres undefined), the cell number change came out at 11.7%. In addition, the AC50 under setting [2] was 0.92 µM [falling, full curve, poor fit].

Consider `CCOc1ccc(CCNC(=O)COC(=O)c2cccc(N(C)C)c2)cc1OCC`, for which the cell number change was -59.6%. Moreover, the AC50 under setting [1] was 0.0461 µM [falling, full curve]. For the same molecule, the AC50 under setting [2] was 1.64 µM [falling, partial curve].

In the case of `Cn1nnnc1SCC(=O)N1c2ccccc2CCc2ccccc21`, the cell number change is -27%. For the same molecule, the AC50 under setting [2] is 1.84 µM [falling, partial curve, poor fit].

In the case of `Cc1nc2c(-c3ccccc3)cnn2c(N)c1-c1ccccc1`, under setting [2], the half-maximal activity concentration (AC50) was 5.17 µM [falling, single point].

In the case of `CSCCC(NS(=O)(=O)c1ccc(Cl)c(Cl)c1)C(=O)O` (centres undefined), the AC50 under setting [1] was 0.00517 µM [rising, full curve, poor fit].

With `Cc1ccccc1Cn1ccc(NC(=O)c2nn3cccnc3c2Cl)n1`, the cell number change came out at 16.4%. In addition, the concentration at half-maximal activity (AC50) under setting [2] is 4.61 µM [rising, full curve, poor fit].

Turning to `CCCn1c(SCC(=O)Nc2nnc(C(C)C)s2)nc2c1c(=O)n(C)c(=O)n2C`, the cell number change was -0.835%. Further, the AC50 under setting [2] was 3.66 µM [falling, full curve].

With `CCc1nc(SCC(=O)O)c(C#N)c2c1CCCC2`, the cell number change was found to be 30.5%. Further, the AC50 under setting [2] is 0.651 µM [rising, full curve, poor fit].

In the case of `CCc1c(C)c(C#N)c2nc3ccccc3n2c1-n1nc(C)cc1C`, the cell number change was -9.15%. The AC50 under setting [2] was 0.517 µM [falling, full curve].

As for `CC1CN(C(=O)N2c3ccccc3Sc3ccccc32)CC(C)O1` (centres undefined), the cell number change was 0.658%.

Take `CC1CCCN(C(=O)c2ccc(-c3ccccc3Cl)o2)C1` (centres undefined): the cell number change was -22.7%. For the same molecule, under setting [2], the half-maximal activity concentration (AC50) is 29.1 µM [falling, single point].

For `O=C(COc1cccc(NC(=O)c2cccc([N+](=O)[O-])c2)c1)c1ccc(Br)cc1`, the cell number change was determined as 26.4%. Moreover, the AC50 under setting [1] was 0.164 µM [rising, full curve, poor fit].

Take `COC(=O)[C@H](Cc1ccccc1)NC(=O)Nc1ccc(OC)cc1`: the cell number change is -7.78%. The AC50 under setting [2] was 6.51 µM [rising, single point].

`CC1CC1C(=O)OCC(=O)N(C)c1c(N)n(Cc2ccccc2)c(=O)[nH]c1=O` (centres undefined): under setting [1], the concentration at half-maximal activity (AC50) is 3.66 µM [rising, partial curve, poor fit].

In the case of `COc1ccccc1CCCNC(=O)C1CCC(=O)N(CCN2CCOCC2)C1` (centres undefined), the cell number change turned out to be 12.9%. In addition, under setting [2], the AC50 is 29.1 µM [rising, single point].

For `CCCCN(CC)C(=O)c1ccc(-c2ccccc2)cc1`, the cell number change turned out to be 21.5%. Under setting [2], the AC50 is 5.17 µM [rising, full curve].

On to `CCCCOC(=O)Nc1cc(C(=O)OC)ccc1C(=O)OC`, for which the AC50 was 0.116 µM [rising, full curve, poor fit] under setting [1] and 29.1 µM [rising, partial curve] under setting [2].

Take `Cc1nn2c(-c3ccncc3)ccnc2c1Cl`: the cell number change worked out at 41.5%.

On to `N#Cc1cc2cc3c(cc2nc1SCC(=O)OC1CCCCC1)OCO3`, for which the cell number change stood at 4.48%. In addition, under setting [2], the half-maximal activity concentration (AC50) was 23.1 µM [rising, single point].

Take `O=C(O)CCSc1nnc(SCC(=O)NCC(F)(F)F)s1`: the cell number change is -7.71%.

Consider `COc1ccc(NC(=O)C=C(C)C)cc1Cl`, for which the cell number change is 2.05%. The concentration at half-maximal activity (AC50) under setting [2] is 13 µM [rising, partial curve].

For the molecule `CC(C)(C)c1cc(/C=N/NC(=O)C[n+]2ccccc2)cc(C(C)(C)C)c1O`, the AC50 under setting [1] was 3.26 µM [falling, single point] and the AC50 under setting [2] is 0.651 µM [falling, partial curve].

Regarding `O=C(Nc1ccc(-n2cccc2)cc1)C1CC1`, the cell number change was 20.7%.

Consider `Cc1ccc(-c2cnc(N)n2C)cc1C`, for which, under setting [1], the AC50 was 0.58 µM [rising, single point].

On to `NNC(=O)c1ccc(N2CCc3ccccc32)c([N+](=O)[O-])c1`, for which the cell number change was -31%. Further, the half-maximal activity concentration (AC50) under setting [1] is 23.1 µM [falling, single point]. Further, under setting [2], the half-maximal activity concentration (AC50) is 16.4 µM [falling, single point].

As to `C/C(=N\Nc1nc2ccccc2[nH]1)c1ccccn1`, the cell number change was determined as 2.63%.

With `CN(c1cccc(NC(=O)CN(c2cccc(Cl)c2)S(=O)(=O)c2ccccc2)c1)S(C)(=O)=O`, the cell number change was -21.6%. Also, under setting [2], the concentration at half-maximal activity (AC50) is 23.1 µM [falling, single point].

For the molecule `COC(=O)CNC(=O)C1CCN(c2nc(C)cc(C)n2)CC1`, the cell number change is 15.4%. The AC50 under setting [2] was 25.9 µM [rising, single point].

In the case of `COc1ccc(N2CCN(S(=O)(=O)CCNC(=O)CCCc3ccccc3)CC2)cc1`, the cell number change amounted to 19.9%.

Regarding `O=C(NCc1ccco1)Oc1ccccc1`, the cell number change was -8.36%. Also, the AC50 under setting [1] was 6.51 µM [rising, single point]. Under setting [2], the AC50 was 0.58 µM [falling, single point].
